From publication PMC8447793
These are yes or no findings as the source states them, for the method shown. In cells and extracts the contact can be indirect. Binding can be weak; no strength is given.

Amino acid sequences for entries named in this document (tags omitted). A change or cut given only in a name is not applied to a line headed by its entry.
UniProt Q9BST9: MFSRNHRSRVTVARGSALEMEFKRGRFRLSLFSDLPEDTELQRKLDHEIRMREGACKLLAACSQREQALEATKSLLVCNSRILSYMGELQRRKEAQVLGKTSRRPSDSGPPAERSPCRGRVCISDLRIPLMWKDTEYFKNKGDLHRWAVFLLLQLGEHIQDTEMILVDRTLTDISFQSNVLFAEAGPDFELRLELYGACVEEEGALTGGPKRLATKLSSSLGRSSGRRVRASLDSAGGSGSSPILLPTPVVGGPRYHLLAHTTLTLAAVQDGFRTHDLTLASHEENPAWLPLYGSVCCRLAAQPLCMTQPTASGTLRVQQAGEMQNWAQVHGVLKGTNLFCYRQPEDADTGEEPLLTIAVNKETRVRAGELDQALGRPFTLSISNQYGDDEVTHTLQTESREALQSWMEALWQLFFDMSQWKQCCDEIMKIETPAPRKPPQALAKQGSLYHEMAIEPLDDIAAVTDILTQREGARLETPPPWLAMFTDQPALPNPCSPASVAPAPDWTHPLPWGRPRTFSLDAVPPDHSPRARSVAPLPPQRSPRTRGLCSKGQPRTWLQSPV
UniProt P61586: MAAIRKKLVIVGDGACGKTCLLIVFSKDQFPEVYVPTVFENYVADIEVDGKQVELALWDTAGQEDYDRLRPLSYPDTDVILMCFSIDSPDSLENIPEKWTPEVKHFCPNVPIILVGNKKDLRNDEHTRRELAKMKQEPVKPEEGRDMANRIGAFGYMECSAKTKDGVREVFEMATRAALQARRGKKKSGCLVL

Target: Rhotekin Rho-binding domain agarose beads (RhoA Assay Reagent) (UniProt Q9BST9)
Assay: pull-down; Rhotekin RBD agarose beads (12 µl) mixed with 500 µg lysate of ST88-14 or STS-26T cells with or without doxycycline-induced DN R-Ras; bound RhoA detected by blot; only the target purified

- binding: binds
Substance: RhoA (from UniProt P61586 1-193)
